PubChem BioAssay AID652259 | Drosophila RNAi Screening Center | 2013
In all, the deposit lists about 22,000 reagents; this is an unselected part of those with a known target gene and a result. Over the whole deposit, 233 (1.1%) are marked active. 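Light values are raw, unnormalised plate reads; the ratio scores behind the reporter calls were not deposited.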 Not stated in the record: the amount of reagent, the time to read-out, the dose of the treatment.

- Aim: 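Genome-wide hunt for genes that control Wingless pathway activity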 (primary screen)
- Cells: Drosophila clone 8 imaginal disc epithelial cells
- Reagent: long dsRNA against Drosophila genes
- Conditions: pathway stimulated by co-transfected Wingless expression plasmid
- Read-out: 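Firefly luciferase from a tcf-site Wingless reporter, measured alongside co-transfected Renilla luciferase that tracks transfection; pathway stimulated by a Wingless plasmid; the firefly-to-Renilla ratio is not deposited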
- Direction: firefly reporter light: higher = more Wg reporter light, before normalisation; Renilla control light: higher = more transfected or surviving cells
- Hit rule: 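Strong candidates differ from their plate mean by at least two out of four per-plate statistical tests; weak candidates meet just one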
- Calls: active = candidate regulator (raises or lowers reporter); inactive = not a candidate

Which result is listed for CG14763 [DRSC06497]?
firefly reporter light, replicate 1: 3172; firefly reporter light, replicate 2: 8796; Renilla control light, replicate 1: 934; Renilla control light, replicate 2: 4237; call: inactive

Which result is listed for CG11693 [DRSC14353]?
firefly reporter light, replicate 1: 22224; Renilla control light, replicate 1: 4777; call: inactive

With ara [DRSC11322], what was measured?
firefly reporter light, replicate 1: 5017; Renilla control light, replicate 1: 1001; call: inactive

How did the screen score Aldh-III [DRSC06047]?
firefly reporter light, replicate 1: 19372; Renilla control light, replicate 1: 6328; call: inactive

For CG11562 [DRSC00316], how do the results read?
firefly reporter light, replicate 1: 3334; firefly reporter light, replicate 2: 6725; Renilla control light, replicate 1: 1168; Renilla control light, replicate 2: 2473; call: inactive

How did the screen score Ing3 [DRSC20002]?
firefly reporter light, replicate 1: 2957; firefly reporter light, replicate 2: 9563; Renilla control light, replicate 1: 981; Renilla control light, replicate 2: 3344; call: inactive

For CG4293 [DRSC18557], what does the deposit list?
firefly reporter light, replicate 1: 2316; firefly reporter light, replicate 2: 5989; Renilla control light, replicate 1: 856; Renilla control light, replicate 2: 1549; call: inactive

With BBS8 [DRSC00360], what does the deposit list?
firefly reporter light, replicate 1: 5450; firefly reporter light, replicate 2: 12587; Renilla control light, replicate 1: 1754; Renilla control light, replicate 2: 3766; call: inactive

With CG31313 [DRSC13044], how do the results read?
firefly reporter light, replicate 1: 5330; Renilla control light, replicate 1: 884; call: inactive

How did the screen score CG8750 [DRSC11037]?
firefly reporter light, replicate 1: 7120; Renilla control light, replicate 1: 2231; call: inactive

For CG9917 [DRSC20218], what does the deposit list?
firefly reporter light, replicate 1: 3360; firefly reporter light, replicate 2: 9171; Renilla control light, replicate 1: 1053; Renilla control light, replicate 2: 2473; call: inactive

Which result is listed for CG31233 [DRSC15888]?
firefly reporter light, replicate 1: 35952; Renilla control light, replicate 1: 5504; call: inactive

With Msp300 [DRSC00854], what was measured?
firefly reporter light, replicate 1: 23180; Renilla control light, replicate 1: 10560; call: inactive

What did the screen give for Msp300 [DRSC00856]?
firefly reporter light, replicate 1: 25046; Renilla control light, replicate 1: 10947; call: inactive

Which result is listed for Msp300 [DRSC00857]?
firefly reporter light, replicate 1: 18473; Renilla control light, replicate 1: 12432; call: inactive

How did the screen score Msp300 [DRSC00858]?
firefly reporter light, replicate 1: 20500; Renilla control light, replicate 1: 9458; call: inactive

What did the screen give for Msp300 [DRSC02360]?
firefly reporter light, replicate 1: 2052; firefly reporter light, replicate 2: 4650; Renilla control light, replicate 1: 964; Renilla control light, replicate 2: 1816; call: inactive

How did the screen score Msp300 [DRSC03369]?
firefly reporter light, replicate 1: 7226; Renilla control light, replicate 1: 3322; call: inactive

What is on record for Msp300 [DRSC03370]?
firefly reporter light, replicate 1: 2551; firefly reporter light, replicate 2: 6060; Renilla control light, replicate 1: 1063; Renilla control light, replicate 2: 2924; call: inactive

Not a retest: entries from further up.
CG11562 [DRSC00316] → firefly reporter light, replicate 1 = 3334; firefly reporter light, replicate 2 = 6725; Renilla control light, replicate 1 = 1168; Renilla control light, replicate 2 = 2473; call = inactive
Ing3 [DRSC20002] → firefly reporter light, replicate 1 = 2957; firefly reporter light, replicate 2 = 9563; Renilla control light, replicate 1 = 981; Renilla control light, replicate 2 = 3344; call = inactive
